Laboratory results reported in patent US7998985B2, “1,5-diphenyl-3-pyridinylamino-1,5-dihydropyrrolidin-2-one as CB1 receptor modulator” (Eli Lilly and Company, priority 2006, dated 2011).
At least one compound was matched to its structure with a doubt left.

System: Male Sprague Dawley rats
Assay: cFos activation in rat brain, alone and with clozapine
Assay type: in vivo
Settings: Example 2 1 or 10 mg/kg p.o.
Description: Characterize Example 2 for its ability to activate gene expression and neurochemical efflux in cortical and subcortical regions and to interact with the prototypical atypical antipsychotic agent clozapine.
Methods: House Male Sprague Dawley rats (155-175 g) for 1 week prior to experimentation. Prepare Example 2 in a vehicle suspension of 1% Sodium carboxymethyl cellulose, 0.5% Sodium lauryl sulfate, 0.05% Antifoam, 0.085% Povidone and administer, to rats (e.g., male Sprague Dawley rats, 155-175 g) p.o. (a dose of 1 or 10 mg/kg). Control rats receive vehicle. Administer clozapine (Sigma) 1 hour later at a concentration of 8 mg/mL in a vehicle solution of 0.4% lactic acid at a dose of 8 mg/kg s.c. Sacrifice animals (n=7-8 per group) by decapitation 2 hours after administration of clozapine or vehicle for clozapine. Remove rapidly whole brains and immediately immerse in isopentane (2-methyl butane) over dry ice. Cut coronal sections through the prefrontal cortex (PFC), nucleus accumbens (NAc) and dorsolateral striatum (DL-Str) at 14 μm and perform Fos immunohistochemistry. Assess atypicality index (Robertson et al., 1994) using the following formula: Atypical Index=(NAcD−NAcV)−(DL-StrD−DL-StrV) where the average number of Fos-li neurons in NAc=nucleus accumbens, D=drug, V=vehicle, DL-Str=dorsolateral striatum. […]

## CN1CCN(C2=Nc3cc(Cl)ccc3Nc3ccccc32)CC1 [Clozapine, clozapine, reference compound]
  cortical and subcortical Fos reactivity, compound alone: tend to or significantly enhance cortical and subcortical Fos reactivity
